Laboratory results taken from PMC7210271.
Construct, isoform or probe ends are uncertain for at least one entry. For some assays here: A weaker result is weaker than the reference pair of the same experiment.

Columns and labels:
[1] = system: DNMT3A WT MTase domain + DNMT3L C-terminal domain; experiment: EMSA; settings: 0-600 nM protein, 20 nM DNA, multiple shifted bands; EMSA: 50 mM Tris-HCl pH 7.5, 5% glycerol, 1 mM DTT, gel run at 4 C; recombinant protein; protein details: N-terminal His6-SUMO removed by ULP1
[2] = system: DNMT3A R882H MTase domain + DNMT3L C-terminal domain; experiment: EMSA; settings: 0-600 nM protein, 20 nM DNA, significantly reduced shift; EMSA: 50 mM Tris-HCl pH 7.5, 5% glycerol, 1 mM DTT, gel run at 4 C; recombinant protein; protein details: N-terminal His6-SUMO removed by ULP1

Does “GACGACGACGACGACGACGACGACGACGACGACGAC (double strand) [36-mer (GAC)12 DNA]” bind [1]?
Result: binds

Does “GACGACGACGACGACGACGACGACGACGACGACGAC (double strand) [36-mer (GAC)12 DNA]” bind [2]?
Result: binds more weakly
